Reference: the supplement of paper PMC4604168 (melanoma cell lines)
Some of the results follow. Repeats are few or missing, and single values can be far off.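 Cells were imaged in 1,536-well plates, and nuclei stained with an antibody against cleaved PARP were counted against all DNA-stained nuclei to give the apoptosis fraction. Screening doses were chosen to leave most cells alive, and resting and induced cleaved-PARP levels differ strongly between cell lines.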

What was measured:
Assay in all cases: cleaved PARP positive nuclei fraction relative to DMSO control; melanoma cells; higher = more apoptosis
Details in all cases: library dose: low library concentration; 72 h
WM115 = test system: WM115
WM1716 = test system: WM1716
WM1745 = test system: WM1745
WM3526 = test system: WM3526
WM3619 = test system: WM3619
WM451Lu = test system: WM451Lu

| Structure (SMILES) | cleaved PARP positive nuclei fraction (WM115) | cleaved PARP positive nuclei fraction (WM1716) | cleaved PARP positive nuclei fraction (WM1745) | cleaved PARP positive nuclei fraction (WM3526) | cleaved PARP positive nuclei fraction (WM3619) | cleaved PARP positive nuclei fraction (WM451Lu) |
| --- | --- | --- | --- | --- | --- | --- |
| NC1(c2ccc(-c3nc4ccn5c(=O)[nH]nc5c4cc3-c3ccccc3)cc2)CCC1 + C=CCn1c(=O)c2cnc(Nc3ccc(N4CCN(C)CC4)cc3)nc2n1-c1cccc(C(C)(C)O)n1 [MK1775] (first compound 0.4 µM, partner dose 0.02 µM) | 929% | 205% | 145% | 191% | 96% | 96.1% |
| CCCCCCCCc1ccc(CCC(N)(CO)CO)cc1 [fingolimod] + C[C@]1(c2nc3c(C(N)=O)cccc3[nH]2)CCCN1 [Veliparib] (first compound 2 µM, partner dose 1.4 µM) | 174% | 50% | 124% | 182% | 107% | 24.8% |
| C[C@]1(O)C[C@@H](c2nc(-c3ccc4ccc(-c5ccccc5)nc4c3)c3c(N)nccn32)C1 + Cn1c(=O)n(-c2ccc(C(C)(C)C#N)cc2)c2c3cc(-c4cnc5ccccc5c4)ccc3ncc21 [NVP-BEZ235] (first compound 0.4 µM, partner dose 0.004 µM) | 214% | 38.3% | 121% | 102% | 112% | 151% |
| COc1ccc(C2=N[C@@H](c3ccc(Cl)cc3)[C@@H](c3ccc(Cl)cc3)N2C(=O)N2CCNC(=O)C2)c(OC(C)C)c1 [Nutlin-3] + Cc1cc(Nc2cc(N3CCN(C)CC3)nc(/C=C/c3ccccc3)n2)n[nH]1 [ENMD2076] (first compound 0.1 µM, partner dose 0.04 µM) | 119% | 72.6% | 94.6% | 36.5% | 94.9% | 20.5% |
| C[C@@H](N)c1ccc(C(=O)Nc2ccnc3[nH]ccc23)cc1 + Cc1cc(N2CCOCC2)cc2[nH]c(-c3c(NC[C@@H](O)c4cccc(Cl)c4)cc[nH]c3=O)nc12 [BMS536924] (first compound 0.4 µM, partner dose 0.2 µM) | 60.8% | 151% | 170% | 105% | 88.1% | 44.2% |
| C[C@]1(O)C[C@@H](c2nc(-c3ccc4ccc(-c5ccccc5)nc4c3)c3c(N)nccn32)C1 + Cc1ccc(NC(=O)c2cccc(N(C)C)c2)cc1NC(=O)c1ccc(O)cc1 [ZM336372] (first compound 0.4 µM, partner dose 2 µM) | 76.8% | 123% | 122% | 66.7% | 105% | 59.7% |
| CCCCCCCCc1ccc(CCC(N)(CO)CO)cc1 [fingolimod] + Cn1c(=O)n(-c2ccc(C(C)(C)C#N)cc2)c2c3cc(-c4cnc5ccccc5c4)ccc3ncc21 [NVP-BEZ235] (first compound 2 µM, partner dose 0.004 µM) | 103% | 48% | 243% | 47.3% | 116% | 22.6% |
| CS(=O)(=O)c1ccc(C(=O)Nc2ccc(Cl)c(-c3ccccn3)c2)c(Cl)c1 [vismodegib] + NC1(c2ccc(-c3nc4ccn5c(=O)[nH]nc5c4cc3-c3ccccc3)cc2)CCC1 [MK2206] (first compound 1 µM, partner dose 0.4 µM) | 133% | 151% | 84.5% | 233% | 109% | 109% |
| CN(c1ncccc1CNc1nc(Nc2ccc3c(c2)CC(=O)N3)ncc1C(F)(F)F)S(C)(=O)=O + Nc1nc(F)nc2c1ncn2[C@@H]1O[C@H](CO)[C@@H](O)[C@@H]1O [fludarabine] (first compound 0.08 µM, partner dose 0.2 µM) | 265% | 2010% | 112% | 1470% | 91.7% | 98.2% |
| Cn1cnc2c(F)c(Nc3ccc(Br)cc3Cl)c(C(=O)NOCCO)cc21 [selumetinib] + COc1cc(Nc2ncc(F)c(Nc3ccc4c(n3)NC(=O)C(C)(C)O4)n2)cc(OC)c1OC [Tamatinib] (first compound 0.015 µM, partner dose 0.4 µM) | 288% | 39.1% | 163% | 94.2% | 120% | 117% |
| NC1(c2ccc(-c3nc4ccn5c(=O)[nH]nc5c4cc3-c3ccccc3)cc2)CCC1 + COc1cc2c(Oc3ccc4[nH]c(C)cc4c3F)ncnc2cc1OCCCN1CCCC1 [cediranib] (first compound 0.4 µM, partner dose 0.4 µM) | 104% | 111% | 96.6% | 35.6% | 90.8% | 448% |
| Cn1sc(=O)n(Cc2ccccc2)c1=O + N#Cc1c(O)c2c(-c3ccc(-c4ccccc4O)cc3)csc2[nH]c1=O [A769662] (first compound 0.4 µM, partner dose 2 µM) | 88% | 127% | 87.2% | 40.3% | 94.7% | 61.3% |

2 consecutive records out of the list so far, quoted:

| Structure (SMILES) | cleaved PARP positive nuclei fraction (WM115) | cleaved PARP positive nuclei fraction (WM1716) | cleaved PARP positive nuclei fraction (WM1745) | cleaved PARP positive nuclei fraction (WM3526) | cleaved PARP positive nuclei fraction (WM3619) | cleaved PARP positive nuclei fraction (WM451Lu) |
| --- | --- | --- | --- | --- | --- | --- |
| NC1(c2ccc(-c3nc4ccn5c(=O)[nH]nc5c4cc3-c3ccccc3)cc2)CCC1 + COc1cc2c(Oc3ccc4[nH]c(C)cc4c3F)ncnc2cc1OCCCN1CCCC1 [cediranib] (first compound 0.4 µM, partner dose 0.4 µM) | 104% | 111% | 96.6% | 35.6% | 90.8% | 448% |
| Cn1sc(=O)n(Cc2ccccc2)c1=O + N#Cc1c(O)c2c(-c3ccc(-c4ccccc4O)cc3)csc2[nH]c1=O [A769662] (first compound 0.4 µM, partner dose 2 µM) | 88% | 127% | 87.2% | 40.3% | 94.7% | 61.3% |
